Laboratory results taken from publication PMC3422280.
These are yes or no findings as the source states them, for the method shown. In cells and extracts the contact can be indirect. Some results given as binding are weak or reduced against the parent protein; the word gives no strength.

Target: T1, endogenous OKL38 of U2OS cells (human (endogenous in U2OS)) (UniProt Q9UJX0)
T1 sequence: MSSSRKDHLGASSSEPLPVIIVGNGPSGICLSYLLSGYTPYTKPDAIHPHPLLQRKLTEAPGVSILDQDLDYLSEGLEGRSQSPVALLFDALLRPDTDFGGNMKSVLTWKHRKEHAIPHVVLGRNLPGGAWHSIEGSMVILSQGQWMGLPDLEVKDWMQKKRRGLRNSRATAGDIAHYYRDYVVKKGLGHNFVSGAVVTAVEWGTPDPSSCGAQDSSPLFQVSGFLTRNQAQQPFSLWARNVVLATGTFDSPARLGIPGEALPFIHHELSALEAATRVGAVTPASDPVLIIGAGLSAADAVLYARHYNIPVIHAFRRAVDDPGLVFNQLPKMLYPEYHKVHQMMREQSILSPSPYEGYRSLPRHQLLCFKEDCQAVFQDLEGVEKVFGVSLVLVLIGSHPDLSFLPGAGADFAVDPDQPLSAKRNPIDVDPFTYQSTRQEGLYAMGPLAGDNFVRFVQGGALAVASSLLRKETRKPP
Test: co-IP; U2OS nuclear extracts precipitated with anti-p53 or anti-OKL38 antibody (normal mouse or rabbit IgG as control); blots for p53 and OKL38

endogenous p53 of U2OS cells (from UniProt P04637 1-393)
binding: binds
